Test results reported in the supplement of paper PMC10849652.
This is one part of the list.

Sequences of proteins named here, by UniProt entry; tags and fusion partners are left off. A change or cut given only in a name is not applied to a line headed by its entry.
UniProt Q9Y5U9: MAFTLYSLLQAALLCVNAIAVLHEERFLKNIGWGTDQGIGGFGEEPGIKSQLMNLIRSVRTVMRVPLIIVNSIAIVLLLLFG
UniProt Q9BUE6: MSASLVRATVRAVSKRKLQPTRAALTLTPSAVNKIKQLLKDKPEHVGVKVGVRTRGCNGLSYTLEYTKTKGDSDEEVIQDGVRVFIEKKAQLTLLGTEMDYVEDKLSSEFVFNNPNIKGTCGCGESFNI
UniProt O75874, whole entry, looked up: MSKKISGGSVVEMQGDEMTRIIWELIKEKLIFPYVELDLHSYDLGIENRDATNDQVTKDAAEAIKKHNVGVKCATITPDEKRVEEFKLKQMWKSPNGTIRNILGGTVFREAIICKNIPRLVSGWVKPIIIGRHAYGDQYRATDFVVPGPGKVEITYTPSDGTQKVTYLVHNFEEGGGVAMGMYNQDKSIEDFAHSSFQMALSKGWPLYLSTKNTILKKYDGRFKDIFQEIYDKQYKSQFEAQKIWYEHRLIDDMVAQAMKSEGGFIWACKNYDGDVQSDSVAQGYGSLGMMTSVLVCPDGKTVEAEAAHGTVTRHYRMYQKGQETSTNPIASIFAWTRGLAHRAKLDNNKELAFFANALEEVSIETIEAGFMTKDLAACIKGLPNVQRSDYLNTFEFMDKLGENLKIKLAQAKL
UniProt Q9NPH2: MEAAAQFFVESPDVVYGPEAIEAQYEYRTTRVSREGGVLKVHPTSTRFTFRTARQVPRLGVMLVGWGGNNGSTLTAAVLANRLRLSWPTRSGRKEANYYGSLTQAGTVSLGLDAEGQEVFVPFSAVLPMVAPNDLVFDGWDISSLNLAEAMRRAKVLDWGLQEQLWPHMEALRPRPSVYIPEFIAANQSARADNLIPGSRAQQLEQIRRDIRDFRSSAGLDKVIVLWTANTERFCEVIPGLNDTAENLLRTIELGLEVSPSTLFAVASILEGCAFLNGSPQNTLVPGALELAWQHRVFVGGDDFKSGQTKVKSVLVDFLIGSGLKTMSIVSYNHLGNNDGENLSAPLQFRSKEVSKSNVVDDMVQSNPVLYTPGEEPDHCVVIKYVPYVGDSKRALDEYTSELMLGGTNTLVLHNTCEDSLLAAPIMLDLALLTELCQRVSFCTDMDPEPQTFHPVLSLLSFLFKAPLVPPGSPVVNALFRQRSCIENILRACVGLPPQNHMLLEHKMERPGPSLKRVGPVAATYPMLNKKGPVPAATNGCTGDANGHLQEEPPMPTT
UniProt O15357: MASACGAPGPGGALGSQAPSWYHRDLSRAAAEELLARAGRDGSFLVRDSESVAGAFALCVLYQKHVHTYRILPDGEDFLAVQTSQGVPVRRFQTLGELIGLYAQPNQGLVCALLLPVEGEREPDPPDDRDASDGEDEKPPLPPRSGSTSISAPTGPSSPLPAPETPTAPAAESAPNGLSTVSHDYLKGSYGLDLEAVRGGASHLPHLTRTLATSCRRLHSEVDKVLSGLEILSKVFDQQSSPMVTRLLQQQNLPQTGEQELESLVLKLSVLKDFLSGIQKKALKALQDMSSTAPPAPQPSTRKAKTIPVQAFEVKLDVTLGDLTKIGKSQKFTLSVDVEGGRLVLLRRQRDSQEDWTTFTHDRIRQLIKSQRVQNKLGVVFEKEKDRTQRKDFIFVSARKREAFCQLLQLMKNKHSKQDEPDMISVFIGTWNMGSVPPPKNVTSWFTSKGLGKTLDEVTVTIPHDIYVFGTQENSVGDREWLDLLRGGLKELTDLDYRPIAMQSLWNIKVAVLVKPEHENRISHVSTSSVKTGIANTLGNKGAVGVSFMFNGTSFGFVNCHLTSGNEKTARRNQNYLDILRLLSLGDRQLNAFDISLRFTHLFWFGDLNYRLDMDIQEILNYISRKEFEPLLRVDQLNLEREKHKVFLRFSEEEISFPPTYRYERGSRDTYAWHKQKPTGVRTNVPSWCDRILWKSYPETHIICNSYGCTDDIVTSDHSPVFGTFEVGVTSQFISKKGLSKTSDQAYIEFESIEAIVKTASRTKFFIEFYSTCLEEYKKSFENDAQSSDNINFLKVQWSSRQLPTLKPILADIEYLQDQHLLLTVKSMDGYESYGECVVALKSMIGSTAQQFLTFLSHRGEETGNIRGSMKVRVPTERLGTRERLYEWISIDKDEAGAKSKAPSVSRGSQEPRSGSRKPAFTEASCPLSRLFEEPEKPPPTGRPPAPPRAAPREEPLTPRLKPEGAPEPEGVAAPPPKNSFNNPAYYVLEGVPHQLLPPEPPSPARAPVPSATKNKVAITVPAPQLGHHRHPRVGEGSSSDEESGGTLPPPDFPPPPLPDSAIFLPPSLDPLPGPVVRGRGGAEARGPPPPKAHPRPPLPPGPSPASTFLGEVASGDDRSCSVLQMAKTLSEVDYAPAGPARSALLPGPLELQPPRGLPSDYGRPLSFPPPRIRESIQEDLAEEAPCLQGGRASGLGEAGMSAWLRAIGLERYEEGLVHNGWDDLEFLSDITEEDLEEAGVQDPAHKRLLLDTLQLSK
UniProt Q969P0: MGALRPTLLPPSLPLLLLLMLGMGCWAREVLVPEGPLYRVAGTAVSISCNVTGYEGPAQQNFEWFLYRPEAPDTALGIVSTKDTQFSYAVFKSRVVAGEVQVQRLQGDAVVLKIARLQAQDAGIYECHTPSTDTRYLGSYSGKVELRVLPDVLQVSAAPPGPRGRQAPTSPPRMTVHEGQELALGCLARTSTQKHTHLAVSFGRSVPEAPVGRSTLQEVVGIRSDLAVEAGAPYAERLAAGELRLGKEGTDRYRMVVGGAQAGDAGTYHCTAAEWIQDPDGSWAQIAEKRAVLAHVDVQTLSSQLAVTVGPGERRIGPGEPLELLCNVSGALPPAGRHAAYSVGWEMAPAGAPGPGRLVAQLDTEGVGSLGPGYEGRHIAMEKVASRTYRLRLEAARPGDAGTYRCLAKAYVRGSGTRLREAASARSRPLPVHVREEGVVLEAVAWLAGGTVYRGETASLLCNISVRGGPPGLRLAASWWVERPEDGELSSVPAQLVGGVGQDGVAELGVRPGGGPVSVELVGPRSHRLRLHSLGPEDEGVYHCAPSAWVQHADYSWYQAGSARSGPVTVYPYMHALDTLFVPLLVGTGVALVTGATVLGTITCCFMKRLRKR
UniProt Q14116, whole entry, looked up: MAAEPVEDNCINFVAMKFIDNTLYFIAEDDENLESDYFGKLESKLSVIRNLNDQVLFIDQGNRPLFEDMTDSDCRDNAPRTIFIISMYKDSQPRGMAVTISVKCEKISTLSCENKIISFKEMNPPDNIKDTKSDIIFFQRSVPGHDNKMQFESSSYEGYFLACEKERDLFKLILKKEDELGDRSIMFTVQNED
UniProt Q9Y6K9, whole entry, looked up: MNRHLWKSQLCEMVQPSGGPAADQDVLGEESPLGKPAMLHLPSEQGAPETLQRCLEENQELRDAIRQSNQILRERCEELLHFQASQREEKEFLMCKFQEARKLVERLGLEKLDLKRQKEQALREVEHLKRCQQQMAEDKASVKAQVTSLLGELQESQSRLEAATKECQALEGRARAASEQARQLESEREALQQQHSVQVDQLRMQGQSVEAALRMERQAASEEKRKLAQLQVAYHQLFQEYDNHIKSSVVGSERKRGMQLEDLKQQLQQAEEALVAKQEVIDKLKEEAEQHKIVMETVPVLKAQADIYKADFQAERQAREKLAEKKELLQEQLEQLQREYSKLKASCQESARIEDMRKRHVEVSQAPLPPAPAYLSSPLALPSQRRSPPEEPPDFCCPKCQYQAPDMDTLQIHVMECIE
UniProt Q8IY31, whole entry, looked up: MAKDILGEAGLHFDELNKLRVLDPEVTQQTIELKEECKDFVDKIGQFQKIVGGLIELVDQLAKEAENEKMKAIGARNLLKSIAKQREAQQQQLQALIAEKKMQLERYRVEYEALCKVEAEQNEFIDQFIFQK
UniProt P78318: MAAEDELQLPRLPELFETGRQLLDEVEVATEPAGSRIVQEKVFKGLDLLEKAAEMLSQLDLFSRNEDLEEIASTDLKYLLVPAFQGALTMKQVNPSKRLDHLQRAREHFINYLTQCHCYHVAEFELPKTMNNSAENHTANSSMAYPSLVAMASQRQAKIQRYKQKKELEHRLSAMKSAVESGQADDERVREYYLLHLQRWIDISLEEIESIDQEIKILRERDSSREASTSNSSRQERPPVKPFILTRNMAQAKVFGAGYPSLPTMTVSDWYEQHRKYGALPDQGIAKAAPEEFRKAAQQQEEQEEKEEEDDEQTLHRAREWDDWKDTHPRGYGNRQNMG
UniProt P51553: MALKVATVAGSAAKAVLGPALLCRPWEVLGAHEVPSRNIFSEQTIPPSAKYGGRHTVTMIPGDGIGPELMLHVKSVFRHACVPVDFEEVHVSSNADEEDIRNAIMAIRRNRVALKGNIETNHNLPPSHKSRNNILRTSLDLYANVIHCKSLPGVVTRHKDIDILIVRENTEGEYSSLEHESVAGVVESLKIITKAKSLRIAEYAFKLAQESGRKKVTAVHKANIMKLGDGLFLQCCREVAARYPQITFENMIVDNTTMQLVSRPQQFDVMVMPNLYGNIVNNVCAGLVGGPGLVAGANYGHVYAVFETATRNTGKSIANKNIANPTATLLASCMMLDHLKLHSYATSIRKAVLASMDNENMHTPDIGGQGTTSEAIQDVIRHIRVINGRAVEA
UniProt O43736: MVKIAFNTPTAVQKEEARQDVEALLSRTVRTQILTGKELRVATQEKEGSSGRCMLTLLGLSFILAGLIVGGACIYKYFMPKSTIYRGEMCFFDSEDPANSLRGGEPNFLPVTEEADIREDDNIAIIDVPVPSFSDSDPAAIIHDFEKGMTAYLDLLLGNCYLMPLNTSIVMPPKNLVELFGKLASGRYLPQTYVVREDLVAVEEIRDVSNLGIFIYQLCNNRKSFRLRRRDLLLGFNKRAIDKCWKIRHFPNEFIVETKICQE
UniProt P01876, whole entry, looked up: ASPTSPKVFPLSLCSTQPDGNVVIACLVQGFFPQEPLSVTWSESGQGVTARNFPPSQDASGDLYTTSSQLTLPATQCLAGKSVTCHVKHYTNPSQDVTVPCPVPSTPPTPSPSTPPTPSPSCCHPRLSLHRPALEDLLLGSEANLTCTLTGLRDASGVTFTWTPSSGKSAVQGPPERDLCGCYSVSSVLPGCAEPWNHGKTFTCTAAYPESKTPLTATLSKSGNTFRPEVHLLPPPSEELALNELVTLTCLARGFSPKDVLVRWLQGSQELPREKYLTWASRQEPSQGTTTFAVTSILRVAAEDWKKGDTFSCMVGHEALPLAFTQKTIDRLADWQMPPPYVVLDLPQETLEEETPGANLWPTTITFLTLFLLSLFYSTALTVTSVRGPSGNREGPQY
UniProt O14920: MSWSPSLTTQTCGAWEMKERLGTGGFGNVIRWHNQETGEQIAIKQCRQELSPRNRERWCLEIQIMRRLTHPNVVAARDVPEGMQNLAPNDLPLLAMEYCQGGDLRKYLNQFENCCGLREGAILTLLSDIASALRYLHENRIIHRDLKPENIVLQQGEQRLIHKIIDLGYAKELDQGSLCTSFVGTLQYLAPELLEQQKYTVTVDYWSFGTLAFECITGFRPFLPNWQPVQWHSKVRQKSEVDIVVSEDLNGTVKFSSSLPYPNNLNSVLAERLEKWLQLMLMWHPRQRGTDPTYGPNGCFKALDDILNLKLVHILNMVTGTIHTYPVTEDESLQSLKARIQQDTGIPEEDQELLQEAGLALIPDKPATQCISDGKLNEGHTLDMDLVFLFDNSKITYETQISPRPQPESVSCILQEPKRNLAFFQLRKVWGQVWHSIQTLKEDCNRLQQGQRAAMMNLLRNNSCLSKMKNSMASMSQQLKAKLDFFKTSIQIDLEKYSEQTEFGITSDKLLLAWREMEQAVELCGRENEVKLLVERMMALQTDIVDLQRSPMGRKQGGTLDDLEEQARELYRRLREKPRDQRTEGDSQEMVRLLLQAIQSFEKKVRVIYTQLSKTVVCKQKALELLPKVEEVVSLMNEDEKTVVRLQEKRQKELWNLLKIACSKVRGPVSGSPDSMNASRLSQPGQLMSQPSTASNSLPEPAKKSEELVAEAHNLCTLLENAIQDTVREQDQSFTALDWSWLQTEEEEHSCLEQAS
UniProt Q8IU81: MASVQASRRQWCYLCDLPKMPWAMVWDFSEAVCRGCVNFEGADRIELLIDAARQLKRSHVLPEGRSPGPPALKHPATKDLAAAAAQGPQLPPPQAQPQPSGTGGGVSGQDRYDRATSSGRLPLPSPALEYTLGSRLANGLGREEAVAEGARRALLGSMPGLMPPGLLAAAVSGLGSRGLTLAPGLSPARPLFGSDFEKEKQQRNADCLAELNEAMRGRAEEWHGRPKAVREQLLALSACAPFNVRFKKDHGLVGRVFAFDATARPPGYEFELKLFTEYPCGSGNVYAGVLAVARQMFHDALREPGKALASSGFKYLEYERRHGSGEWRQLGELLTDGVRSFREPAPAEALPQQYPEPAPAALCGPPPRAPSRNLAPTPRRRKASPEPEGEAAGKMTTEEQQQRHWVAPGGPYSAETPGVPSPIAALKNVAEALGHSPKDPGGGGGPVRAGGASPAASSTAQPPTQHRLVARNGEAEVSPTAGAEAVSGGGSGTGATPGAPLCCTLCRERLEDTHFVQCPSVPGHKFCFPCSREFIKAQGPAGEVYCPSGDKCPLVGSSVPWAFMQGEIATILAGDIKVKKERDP

What follows are targets tested with c1cn2cc(-c3ccc4cn[nH]c4c3)nc(Nc3ccc(N4CCOCC4)cc3)c2n1 [entospletinib] (assay: log2 fold change, soluble protein after heating vs DMSO (PISA); higher = thermal stabilisation; K562 cells, 10 uM, 30 min; active = over 0.2 and 3.5 SD of the protein, either way, in both replicates (recomputed)).
Procedure, shortened: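 Aliquots of K562 cells (2×10^6 cells/mL) treated with 10 μM compound for 30 min were heated for 3 min over 48°C-58°C. After pooling and extraction in PBS with 0.5% NP-40 at 4°C, soluble protein from a 21,000xg, 90 min spin was quantified by TMTpro 16plex LC-MS/MS with channel sums equalised. Thermal stability is expressed against control samples, from duplicates, as a log2 fold change.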

log2 fold change, inactive:
INTS3 (UniProt Q68E01) -0.019
INTS10 (UniProt Q9NVR2) -0.118
IGSF3 (UniProt O75054) -0.102
IQGAP1 (UniProt P46940) -0.029
IER3IP1 (UniProt Q9Y5U9) -0.049
ISCA1 isoform 2 (UniProt Q9BUE6) 0.016
ING3 (UniProt Q9NXR8) 0.032
IDH1 (UniProt O75874) -0.009
INTS11 (UniProt Q5TA45) 0.012
ITGA5 (UniProt P08648) -0.007
ISYNA1 (UniProt Q9NPH2) 0.036
INPPL1 (UniProt O15357) 0.012
IGSF8 (UniProt Q969P0) 0.084
IMPA1 isoform 3 (UniProt P29218) 0.01
IGKC (UniProt P01834) -0.117
IL18 (UniProt Q14116) -0.061
IKBKG isoform 2 (UniProt Q9Y6K9) 0.022
IGLC3 (UniProt P0DOY3) -0.364
ITIH2 (UniProt P19823) 0.27
INTS13 (UniProt Q9NVM9) 0.005
IRAK1 (UniProt P51617) 0.116
IFT20 isoform 2 (UniProt Q8IY31) 0.048
IGBP1 (UniProt P78318) -0.028
IDH3G (UniProt P51553) -0.044
ITM2A (UniProt O43736) 0.064
IGHA1 (UniProt P01876) -0.19
IKBKB (UniProt O14920) 0.179
IRF2BP1 (UniProt Q8IU81) 0.046

A portion from further up:
log2 fold change, inactive:
IGBP1 (UniProt P78318) -0.028
IDH3G (UniProt P51553) -0.044
